Data taken from paper PMC4323648.
These are yes or no findings as the source states them, for the method shown. In cells and extracts the contact can be indirect. Some binding calls cover weakened binding; strength is not graded here.

Protein sequences, listed by entry. Tags and fused reporters are not part of them.
UniProt Q13561: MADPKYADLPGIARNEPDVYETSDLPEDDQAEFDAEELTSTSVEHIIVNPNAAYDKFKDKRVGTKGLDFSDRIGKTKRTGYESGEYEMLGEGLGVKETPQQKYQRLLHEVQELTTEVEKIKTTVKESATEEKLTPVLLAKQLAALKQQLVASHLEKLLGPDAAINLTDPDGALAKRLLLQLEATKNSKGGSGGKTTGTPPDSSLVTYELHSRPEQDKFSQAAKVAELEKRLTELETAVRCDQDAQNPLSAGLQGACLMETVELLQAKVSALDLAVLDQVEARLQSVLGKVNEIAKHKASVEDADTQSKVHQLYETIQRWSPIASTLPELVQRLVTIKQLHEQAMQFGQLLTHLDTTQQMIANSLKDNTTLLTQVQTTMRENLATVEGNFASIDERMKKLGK
UniProt Q13418: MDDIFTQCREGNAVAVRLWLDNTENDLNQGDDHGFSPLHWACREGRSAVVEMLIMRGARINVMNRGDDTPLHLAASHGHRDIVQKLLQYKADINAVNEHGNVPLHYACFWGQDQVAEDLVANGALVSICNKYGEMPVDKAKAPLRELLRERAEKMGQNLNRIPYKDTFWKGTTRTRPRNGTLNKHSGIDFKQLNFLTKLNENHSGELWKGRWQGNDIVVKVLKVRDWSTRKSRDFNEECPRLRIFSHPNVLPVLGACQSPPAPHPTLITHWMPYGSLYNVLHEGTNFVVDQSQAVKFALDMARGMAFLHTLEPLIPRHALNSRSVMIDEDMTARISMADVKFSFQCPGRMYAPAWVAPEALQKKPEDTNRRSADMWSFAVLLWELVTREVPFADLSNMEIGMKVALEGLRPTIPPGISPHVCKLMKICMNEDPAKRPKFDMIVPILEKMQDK
UniProt Q14980: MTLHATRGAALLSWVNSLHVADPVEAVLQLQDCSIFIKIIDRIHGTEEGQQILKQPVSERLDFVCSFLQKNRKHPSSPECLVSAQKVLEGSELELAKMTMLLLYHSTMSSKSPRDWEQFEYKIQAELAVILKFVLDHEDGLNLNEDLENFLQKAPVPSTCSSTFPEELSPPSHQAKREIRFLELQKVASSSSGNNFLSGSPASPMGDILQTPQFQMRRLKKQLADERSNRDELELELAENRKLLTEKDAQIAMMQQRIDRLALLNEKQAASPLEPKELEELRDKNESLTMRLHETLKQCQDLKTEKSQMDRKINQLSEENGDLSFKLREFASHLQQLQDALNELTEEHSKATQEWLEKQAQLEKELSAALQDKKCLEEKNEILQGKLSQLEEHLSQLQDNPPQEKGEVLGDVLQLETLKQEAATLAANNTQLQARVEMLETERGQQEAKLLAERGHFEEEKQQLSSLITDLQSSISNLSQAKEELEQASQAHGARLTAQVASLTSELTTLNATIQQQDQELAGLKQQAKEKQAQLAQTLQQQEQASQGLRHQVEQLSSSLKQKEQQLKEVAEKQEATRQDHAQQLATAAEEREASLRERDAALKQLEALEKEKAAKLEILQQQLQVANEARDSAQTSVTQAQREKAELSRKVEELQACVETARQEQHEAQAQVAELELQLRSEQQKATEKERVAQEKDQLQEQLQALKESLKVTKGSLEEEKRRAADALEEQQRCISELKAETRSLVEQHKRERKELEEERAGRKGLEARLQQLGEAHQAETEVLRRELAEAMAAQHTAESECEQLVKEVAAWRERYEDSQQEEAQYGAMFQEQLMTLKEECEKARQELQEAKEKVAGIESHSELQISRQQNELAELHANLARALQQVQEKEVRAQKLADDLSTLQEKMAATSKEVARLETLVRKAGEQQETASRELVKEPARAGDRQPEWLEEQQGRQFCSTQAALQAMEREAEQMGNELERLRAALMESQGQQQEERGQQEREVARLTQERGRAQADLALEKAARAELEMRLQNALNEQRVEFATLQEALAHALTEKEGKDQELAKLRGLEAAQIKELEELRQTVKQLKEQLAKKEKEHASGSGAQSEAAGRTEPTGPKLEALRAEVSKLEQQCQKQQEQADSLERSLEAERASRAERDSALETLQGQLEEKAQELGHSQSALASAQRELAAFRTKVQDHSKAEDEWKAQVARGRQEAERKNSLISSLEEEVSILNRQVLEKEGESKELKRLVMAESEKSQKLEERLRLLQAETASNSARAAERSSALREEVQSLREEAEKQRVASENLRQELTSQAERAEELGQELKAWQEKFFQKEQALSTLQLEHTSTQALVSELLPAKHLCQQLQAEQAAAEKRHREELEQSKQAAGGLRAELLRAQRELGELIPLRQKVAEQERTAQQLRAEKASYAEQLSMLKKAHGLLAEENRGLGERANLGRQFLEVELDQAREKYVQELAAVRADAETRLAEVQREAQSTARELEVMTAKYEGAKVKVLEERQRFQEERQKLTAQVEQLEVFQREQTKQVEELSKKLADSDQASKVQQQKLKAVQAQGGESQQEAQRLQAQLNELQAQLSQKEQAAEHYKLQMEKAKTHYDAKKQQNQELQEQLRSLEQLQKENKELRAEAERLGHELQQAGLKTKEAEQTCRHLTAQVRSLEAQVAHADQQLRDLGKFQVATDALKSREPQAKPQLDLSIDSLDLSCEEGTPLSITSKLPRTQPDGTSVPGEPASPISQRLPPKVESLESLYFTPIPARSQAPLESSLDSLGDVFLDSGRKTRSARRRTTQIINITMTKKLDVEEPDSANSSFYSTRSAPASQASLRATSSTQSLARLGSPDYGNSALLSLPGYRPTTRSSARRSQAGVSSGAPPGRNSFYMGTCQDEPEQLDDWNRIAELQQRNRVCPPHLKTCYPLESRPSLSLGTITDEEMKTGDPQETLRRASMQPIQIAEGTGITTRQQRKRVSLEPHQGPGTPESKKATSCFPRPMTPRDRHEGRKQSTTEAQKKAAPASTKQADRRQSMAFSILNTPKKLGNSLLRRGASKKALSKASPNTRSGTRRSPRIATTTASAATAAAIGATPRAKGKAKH

What was measured:
[1] = molecular target: p50/Dynactin-2 (endogenous, HeLa) (human (endogenous in HeLa)) (UniProt Q13561); assay: co-IP; endogenous Dynactin-2 immunoprecipitated from HeLa cells with anti-Dynactin-2 or control IgG; cells first treated with 2 mM DSP and quenched with 10 mM Tris-HCl before lysis; Western blot
[2] = molecular target: Integrin-Linked Kinase (endogenous, HeLa) (human (endogenous in HeLa)) (UniProt Q13418); assay: co-IP; endogenous ILK immunoprecipitated from HeLa (Kyoto) cells with ILK antibody or control IgG; Hepes-Chaps lysis buffer (40 mM Hepes HCl pH 7.4, 120 mM NaCl, 1 mM EDTA, 0.3% Chaps); Western blot
[3] = molecular target: Flag-ILK (Integrin-Linked Kinase) (UniProt Q13418); assay: co-IP; Flag immunoprecipitation from HEK-293 cells stably expressing Flag or Flag-ILK; Western blot for Dynactin-2

Integrin-Linked Kinase (endogenous, HeLa) (from UniProt Q13418 1-452)
binding [1]: binds

p50/Dynactin-2 (endogenous, HeLa) (from UniProt Q13561 1-401)
binding [2]: binds

NuMa (endogenous, HeLa) (from UniProt Q14980 1-2115)
binding [2]: no binding

p50/Dynactin-2 (endogenous, HEK-293) (from UniProt Q13561 1-401)
binding [3]: binds
